PubChem BioAssay AID540276 (National Center for Advancing Translational Sciences (NCATS), 2011)
Several values for one entry are separate records, joined by “and”; a condition that tells them apart may be missing. Equal values may be shown once. About 5,400 (1.8%) of roughly 300,000 compounds were called active. This list was built around the results that the source calls inconclusive (neither active nor inactive); the mix of calls is not that of the screen. Calls come from the whole dose curve; tested in HEK293 cells. Potencies beside an inconclusive call are fits to weak or partial responses and may not hold up.
Potency is the fitted concentration of half-maximal effect.

Test: qHTS for inhibitors of binding or entry into cells for Marburg Virus
Settings: Marburg virus pseudotyped entry inhibition, cell reporter; series mostly up to 37.8 µM
With `N=c1n(N)c2ccccc2n1CC(=O)c1ccc(Br)cc1` the Potency was inconclusive: 35.5 µM [inhibitor, single point]. With `CCC(Oc1ccccc1)C(=O)NC1CCSC1=O` (configuration not stated) the Potency was “inactive”. In the case of `Cc1c(N(CC(=O)O)S(=O)(=O)c2ccccc2)c(=O)n(-c2ccccc2)n1C`, the Potency is reported as “inactive”. In the case of `CCc1c(C(=O)Nc2ncn(Cc3cccc(C)c3)n2)csc1C`, the Potency is reported as “inactive”. In the case of `CS(=O)(=O)N(CC(=O)N1CCCCCC1)c1cccc([N+](=O)[O-])c1`, the Potency is reported as “inactive”. In the case of `O=C(CCNS(=O)(=O)c1ccccc1Cl)N1CCN(c2ccccn2)CC1`, the Potency is reported as inconclusive: 3.55 µM [inhibitor, single point]. For `COc1cccc(OCc2cc(C(=O)NCc3ccccn3)no2)c1`, the Potency was inconclusive: 3.16 µM [activator, partial curve, poor fit]. In the case of `O=C(NCc1csc(-c2cccs2)n1)Nc1ccc(C(F)(F)F)cc1`, the Potency is reported as “inactive”. With `COc1ccc(NC(=O)c2ccc(NC(=O)CCS(=O)(=O)c3cccs3)cc2)cc1OC` the Potency was “inactive”. For `CCCc1c(C(=O)Nc2ccc(F)cc2F)cnn1-c1ccccc1`, the Potency was “inactive”. For `COc1ccc(C(=O)NC(=S)Nc2cccc(S(=O)(=O)N3CCOCC3)c2)cc1`, the Potency was “inactive”. In the case of `N=c1oc2c3c4c(cc2cc1C(=O)Nc1ccccc1)CCCN4CCC3`, the Potency is reported as “inactive”. For `COc1ccc(CCNc2ncnc3cc(OC)c(OC)cc23)cc1OC`, the Potency was inconclusive: 12.6 µM [inhibitor, partial curve]. For `COCc1ccc(CN2CCC(C(=O)Nc3cccc(-c4cccc(Cl)c4)c3)CC2)o1`, the Potency was inconclusive: 35.5 µM [inhibitor, single point]. With `O=C1c2cccnc2C(Nc2ccc(Cl)cc2)N1Cc1cccs1` (configuration not stated) the Potency was inconclusive: 14.1 µM [inhibitor, single point]. For `COc1ccc(C(C(=O)NC(C)(C)C)N(C(=O)CCC(=O)Nc2cc(C)on2)c2cc(C)cc(C)c2)cc1` (configuration not stated), the Potency was inconclusive: 8.91 µM [inhibitor, partial curve, poor fit]. In the case of `CCCCNc1nc2sc3c(c2c(=O)n1-c1cccc(Cl)c1)CCN(C)C3`, the Potency is reported as inconclusive: 7.94 µM [inhibitor, partial curve, poor fit]. With `CC(C)Cn1c(N2CCN(C(=O)c3cccs3)CC2)nc2ccccc21` the Potency was inconclusive: 35.5 µM [inhibitor, partial curve, poor fit]. For `COC(=O)C1=C(N)Oc2cc(C)[nH]c(=O)c2C1c1ccccc1OC` (configuration not stated), the Potency was “inactive”. With `Cc1ccsc1C(=O)C1CCCN(Cc2cccn2-c2ccccn2)C1` (configuration not stated) the Potency was active: 5.62 µM. In the case of `Cc1cc(NC(=O)c2cnn3c(C(F)F)cc(-c4ccccc4)nc23)no1`, the Potency is reported as inconclusive: 13 µM [inhibitor, partial curve]. In the case of `Cc1ccc(N2C(=O)C3N=NN(CC(=O)N4N=C(c5ccccc5)CC4c4ccccc4)C3C2=O)cc1` (configuration not stated), the Potency is reported as inconclusive: 35.5 µM [inhibitor, single point]. In the case of `O=C(NCCCN1CCOCC1)c1cn(-c2ccccc2)nc1-c1cccs1`, the Potency is reported as inconclusive: 0.501 µM [inhibitor, partial curve, poor fit]. With `CN(C)CCN(C(=O)c1ccc2ccccc2c1)c1nc2cc3c(cc2s1)OCCO3` the Potency was inconclusive: 17.8 µM [inhibitor, single point]. For `Brc1ccc(CSc2nnc(-c3cccnc3)o2)cc1`, the Potency was “inactive”. With `C/C(=C\c1ccc(C(=O)O)cc1)c1ccc2c(c1)C(C)(C)CCC2(C)C` the Potency was inconclusive: 14.1 µM [inhibitor, partial curve, poor fit]. In the case of `Cc1ccc(Cl)cc1N1CCN(CCCNc2ncnc3onc(-c4ccc(Cl)cc4)c23)CC1`, the Potency is reported as inconclusive: 5.62 µM [inhibitor, single point]. With `O=S(=O)(NCc1ccc(Cl)cc1Cl)c1cccs1` the Potency was inconclusive: 35.5 µM [inhibitor, single point]. For `CN(C)CCOC(=O)c1cn(Cc2ccccc2)c2ccccc12`, the Potency was inconclusive: 25.1 µM [inhibitor, partial curve, poor fit]. For `CSC[C@@H]1NC(=S)N(c2ccc(C)cc2)C1=O`, the Potency was “inactive”. With `O=c1c2ccccc2nc2n1C(CSCc1ccc(Cl)cc1Cl)CS2` (configuration not stated) the Potency was inconclusive: 20 µM [inhibitor, single point]. For `CN(Cc1ccccc1NCC(=O)Nc1ccccc1C#N)C1CCCCC1`, the Potency was inconclusive: 1.58 µM [inhibitor, full curve, poor fit]. In the case of `Cc1cc(C)nc(NC(=NCCc2c[nH]c3ccccc23)NC(=O)Nc2cccc([N+](=O)[O-])c2)n1`, the Potency is reported as “inactive”. With `Cc1ccc(NC(=O)Cn2nnc3ccccc32)c(C)c1` the Potency was “inactive”. With `CCCN(CC(=O)Nc1ccccc1C)C(=O)c1oc2ccc(OCC)cc2c1C` the Potency was “inactive”. In the case of `CCOc1ccc(Cl)cc1/C=N/NC(=O)CNC(=O)c1ccccc1`, the Potency is reported as inconclusive: 3.55 µM [activator, single point]. In the case of `NC(=S)N=Nc1c(O)[nH]c2c(Cl)cc(Cl)cc12`, the Potency is reported as inconclusive: 0.562 µM [inhibitor, full curve, poor fit]. With `CCn1c(NCc2ccc(OC)c(OC)c2)nc2ccccc21` the Potency was inconclusive: 11.2 µM [inhibitor, partial curve, poor fit]. For `CCc1ccc(N2NC(=O)/C(=C/C=C/c3ccco3)C2=O)cc1`, the Potency was “inactive”. With `OC[C@H]1O[C@@H](n2cnc3c(Nc4ccccc4)ncnc32)[C@H](O)[C@@H]1O` the Potency was “inactive and inconclusive: 18.3 µM [activator, single point]”. With `CC(NC(=O)CN1C(=O)NC2(CCCCCC2)C1=O)c1ccccc1` (configuration not stated) the Potency was inconclusive: 8.91 µM [activator, partial curve, poor fit]. For `O=C(c1cc(C2CC2)nc2ccc(Br)cc12)N1N=C(C(F)F)CC1(O)C(F)F` (configuration not stated), the Potency was inconclusive: 8.2 µM [inhibitor, partial curve, poor fit]. For `Cc1ccc(-n2nc3c(c2NC(=O)c2c(-c4ccccc4Cl)noc2C)CSC3)cc1`, the Potency was inconclusive: 1.46 µM [inhibitor, full curve, poor fit]. For `O=C(CCc1c[nH]c2ccccc12)Nc1ccc(S(=O)(=O)Nc2ncccn2)cc1`, the Potency was inconclusive: 5.62 µM [inhibitor, single point]. With `COC(=O)c1sc2nc(CN3CCN(c4ccc(OC)cc4)CC3)[nH]c(=O)c2c1C` the Potency was “inactive”. With `CCc1ccc(/C=C\C(=O)N2CCc3ccccc3C2)cc1` the Potency was “inactive”. With `Cc1nn2c(-c3ccc(Cl)cc3)ccnc2c1-c1ccccc1` the Potency was inconclusive: 2.51 µM [inhibitor, partial curve, poor fit]. In the case of `Cc1cc(N)nc2nc(C(F)(F)F)nn12`, the Potency is reported as “inactive”. For `COC(=O)c1cc(NC(=O)COC(=O)CCc2c[nH]c3ccccc23)cc(C(=O)OC)c1`, the Potency was inconclusive: 11.2 µM [activator, single point]. In the case of `O=C(c1ccco1)N1CCN(c2nc(C3CC3)nc3sc4c(c23)CCCC4)CC1`, the Potency is reported as inconclusive: 13 µM [inhibitor, partial curve, poor fit]. For `CCCCCn1c(=O)[nH]c2cc(C(=O)NCCN(CC)CC)ccc2c1=O`, the Potency was inconclusive: 23.1 µM [inhibitor, partial curve, poor fit]. With `Cc1cccc(-c2noc(CN(C(=O)/C=C/c3ccccc3Cl)C(C)C)n2)c1` the Potency was “inactive”. For `Cc1nn(-c2ccc(F)cc2)c(C)c1CN1CCN(Cc2ccccc2)C(CCO)C1` (configuration not stated), the Potency was inconclusive: 11.2 µM [inhibitor, partial curve, poor fit]. With `Cc1ccc(C(=O)N/C(=C/C=C\c2ccccc2)C(=O)NCc2ccco2)cc1` the Potency was inconclusive: 35.5 µM [inhibitor, single point]. In the case of `CCC(=O)Nc1ccc(NC(=O)CSc2nnnn2C2CCCC2)cc1C`, the Potency is reported as inconclusive: 12.6 µM [activator, partial curve, poor fit]. In the case of `COc1ccccc1CNC(=O)c1cn(C)c(=O)c2cc(OC)c(OC)cc12`, the Potency is reported as inconclusive: 0.651 µM [inhibitor, full curve, poor fit]. With `Cc1ccccc1C(=O)Nc1ccc(Br)c(C)n1` the Potency was inconclusive: 3.55 µM [activator, single point]. In the case of `Cc1ccnc(N2CCC(C(=O)NNC(=O)c3ccncc3)CC2)n1`, the Potency is reported as “inactive”. With `COc1ccc(C2=NS(=O)(=O)N(C)C(C(=O)NC(C)c3ccccc3)=C2)cc1` (configuration not stated) the Potency was inconclusive: 8.91 µM [inhibitor, partial curve, poor fit]. With `COc1ccc(C)cc1NC(=O)c1nnn(Cc2cccc(Br)c2)c1N` the Potency was inconclusive: 1.26 µM [inhibitor, partial curve, poor fit]. With `CCC(C)(C)n1nnnc1CN(Cc1cccs1)Cc1cc2cc(OC)ccc2[nH]c1=O` the Potency was inconclusive: 11.6 µM [inhibitor, partial curve, poor fit]. In the case of `CCn1c(=O)cc(SCC(=O)NCCCN2CCC(C)CC2)c2ccccc21`, the Potency is reported as inconclusive: 35.5 µM [inhibitor, single point]. With `COc1ccc(N=c2oc3c(OC)cccc3cc2C(=O)NCc2ccco2)c(OC)c1` the Potency was inconclusive: 20.6 µM [inhibitor, single point]. In the case of `CCN1CCCC1CNCc1cccc(OC)c1OCc1ccccc1F` (configuration not stated), the Potency is reported as inconclusive: 18.3 µM [inhibitor, single point]. In the case of `CC1C(=O)C(C)C(c2ccc(Cl)cc2)NC1c1ccc(Cl)cc1` (configuration not stated), the Potency is reported as inconclusive: 14.1 µM [inhibitor, partial curve, poor fit]. With `COC(=O)/C(=C/c1ccco1)NC(=O)c1ccccc1` the Potency was inconclusive: 0.058 µM [inhibitor, full curve, poor fit]. For `COc1ccc(Cc2nnc(SCC(=O)NCCc3ccccc3)o2)cc1`, the Potency was inconclusive: 5.8 µM [inhibitor, single point].
